doi:10.1101/2023.08.13.552748
No constants are given. Whether binding was seen depends on the method and setting. Some entries that bind do so weakly or less than the wild type.

Experiments:
Assay in all cases: cryo-EM structure
Settings in all cases: remark: other sources report otherwise
[1] = biological target: T1, full length rat mGluR3 (metabotropic glutamate receptor 3) (rat), P31422
[2] = biological target: T1, full length rat mGluR3 (metabotropic …); remark: listed apart in the source
[3] = biological target: T1, full length rat mGluR3 (metabotropic …); remark: listed apart in the source
[4] = biological target: T1, full length rat mGluR3 (metabotropic …); remark: listed apart in the source

Measured: binding

B1: full length rat mGluR3 (metabotropic glutamate receptor 3), P31422 23-879 (receptor)
chain: LGDHNFMRREIKIEGDLVLGGLFPINEKGTGTEECGRINEDRGIQRLEAMLFAIDEINKDNYLLPGVKLGVHILDTCSRDTYALEQSLEFVRASLTKVDEAEYMCPDGSYAIQENIPLLIAGVIGGSYSSVSIQVANLLRLFQIPQISYASTSAKLSDKSRYDYFARTVPPDFYQAKAMAEILRFFNWTYVSTVASEGDYGETGIEAFEQEARLRNICIATAEKVGRSNIRKSYDSVIRELLQKPNARVVVLFMRSDDSRELIAAANRVNASFTWVASDGWGAQESIVKGSEHVAYGAITLELASHPVRQFDRYFQSLNPYNNHRNPWFRDFWEQKFQCSLQNKRNHRQVCDKHLAIDSSNYEQESKIMFVVNAVYAMAHALHKMQRTLCPNTTKLCDAMKILDGKKLYKEYLLKINFTAPFNPNKGADSIVKFDTFGDGMGRYNVFNLQQTGGKYSYLKVGHWAETLSLDVDSIHWSRNSVPTSQCSDPCAPNEMKNMQPGDVCCWICIPCEPYEYLVDEFTCMDCGPGQWPTADLSGCYNLPEDYIKWEDAWAIGPVTIACLGFLCTCIVITVFIKHNNTPLVKASGRELCYILLFGVSLSYCMTFFFIAKPSPVICALRRLGLGTSFAICYSALLTKTNCIARIFDGVKNGAQRPKFISPSSQVFICLGLILVQIVMVSVWLILETPGTRRYTLPEKRETVILKCNVKDSSMLISLTYDVVLVILCTVYAFKTRKCPENFNEAKFIGFTMYTTCIIWLAFLPIFYVTSSDYRVQTTTMCISVSLSGFVVLGCLFAPKVHIVLFQPQKNVVTHRLHLNRFSVSGTATTYSQSSASTYVPTVCNGREVLDSTTSSL
binds: all assays above
